Structures were worked out from names or drawings and are uncertain.
Biological target: PAI-1 (Homo sapiens, UniProt P05121)
Experiment: PAI-1 inhibitory activity using synthetic substrate S-2288
Settings: read-out: PAI-1 inhibitory activity IC50
Description: PAI-1 inhibitory activity can be measured using a synthetic substrate S-2288 according to the methods described in International Publication WO04/011442 pamphlet, International Publication WO04/10996 pamphlet, JP-A-2004-250401, etc.

By UniProt entry, the sequences of proteins in these tests, tags left out. Residues count along the entry.
UniProt P05121, 24-402 limits assumed: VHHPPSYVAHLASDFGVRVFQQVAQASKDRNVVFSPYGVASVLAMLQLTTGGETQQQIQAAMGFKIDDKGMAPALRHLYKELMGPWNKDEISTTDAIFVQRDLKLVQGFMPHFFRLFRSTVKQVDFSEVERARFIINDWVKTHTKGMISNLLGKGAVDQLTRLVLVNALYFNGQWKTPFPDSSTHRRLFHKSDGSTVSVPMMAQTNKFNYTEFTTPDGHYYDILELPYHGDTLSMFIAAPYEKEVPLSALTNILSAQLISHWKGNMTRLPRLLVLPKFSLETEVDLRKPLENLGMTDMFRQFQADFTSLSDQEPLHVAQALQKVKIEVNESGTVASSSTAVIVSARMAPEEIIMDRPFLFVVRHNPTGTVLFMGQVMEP

Work on `COc1ccc(-c2nc(-c3ccc4cc(OCCCCCC(C(=O)O)C(=O)O)ccc4c3)oc2-c2ccc(OC)cc2)cc1` yielded an IC50 of 360 nM.
